Results on 4 substances are retold here after PMC6601512.

Sequences of proteins named here, by UniProt entry; tags and fusion partners are left off. A change or cut given only in a name is not applied to a line headed by its entry.
UniProt Q18490: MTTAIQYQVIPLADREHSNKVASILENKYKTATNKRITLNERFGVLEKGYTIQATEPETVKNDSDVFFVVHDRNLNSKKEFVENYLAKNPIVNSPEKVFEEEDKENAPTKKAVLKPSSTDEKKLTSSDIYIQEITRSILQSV

Assay [1] deals with T1, IFE-3, full length (yeast two-hybrid) (C. elegans) (UniProt O61955).
T1 sequence: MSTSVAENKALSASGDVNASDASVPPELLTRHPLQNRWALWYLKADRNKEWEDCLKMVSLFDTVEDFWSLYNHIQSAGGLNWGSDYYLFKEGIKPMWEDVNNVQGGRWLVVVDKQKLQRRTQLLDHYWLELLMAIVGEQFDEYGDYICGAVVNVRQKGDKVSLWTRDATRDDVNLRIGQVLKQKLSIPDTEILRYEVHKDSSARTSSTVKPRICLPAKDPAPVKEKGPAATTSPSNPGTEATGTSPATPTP
In words: two-hybrid; yeast strain PJ69-4a, pGAD and pGBD plasmids; low-stringency (TRP-LEU-HIS-) or high-stringency (TRP-LEU-HIS-ADE-) medium as indicated; both orientations screened.

The target in assay [2] is T2, ERH-2, full length (yeast two-hybrid) (C. elegans) (UniProt Q20057).
T2 sequence: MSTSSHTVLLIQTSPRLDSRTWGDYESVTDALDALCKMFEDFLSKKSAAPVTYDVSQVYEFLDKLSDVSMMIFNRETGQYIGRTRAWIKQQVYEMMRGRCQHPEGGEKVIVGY
The assay is described as above.

These are yes or no findings as the source states them, for the method shown. Binding can be weak; no strength is given.

On to “TOFU-6 C-terminal fragment with the putative eIF4E interaction motif (yeast two-hybrid) (C. elegans) (domain or fragment)”, for which the binding result in assay [1] is on record as “binds”.

Regarding “Tudor domain of TOFU-6 (yeast two-hybrid) (C. elegans) (domain or fragment)”, the binding result in assay [1] is listed as “no binding”.

With “RRM domain of PID-3 (yeast two-hybrid) (C. elegans) (domain or fragment)”, the binding entry in assay [2] is recorded as “binds”.

Regarding “TOST-1 carrying the arginine mutation analogous to PID-1(R61C) (yeast two-hybrid) (from UniProt Q18490)”, the binding result in assay [2] is on record as “no binding”.
